Source: PubChem BioAssay AID743454 (Peter MacCallum Cancer Centre, 2014)

- Aim: 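Genes whose loss kills vorinostat-resistant colon cancer cells under vorinostat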 (primary screen)
- Cell system: human HCT116-VR colon cancer cells, selected for vorinostat resistance
- Reagent: siRNA pool against human genes, 40 nM siRNA pool
- Timing: vorinostat for 24 h, read-out about 72 h after transfection
- Challenge: vorinostat at 2.5 µM final
- Measured: 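Cell viability by CellTiter-Fluor and caspase 3/7 activity by luminescence, each scaled to mock wells per plate, duplicates averaged, then robust z-scored over all plates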
- Scale: viability robust z-score: higher = more viable cells than screen typical; caspase robust z-score: higher = more caspase 3/7 activity than screen typical
- Rule for the call: 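a knock-down is a hit when classed RV1 or RV2 for lowered viability, or CA1 or CA2 for caspase activation; those lethal without drug were dropped; hits were retested singly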
Here is one part, drawn at random, of about 18,000 reagents tested. In the full data, 450 (2.5%) are marked active. 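Single biological run; no consistent viability z cut-off exists, so the class columns, not z-scores, define the calls.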 A number with no mark means an inactive call.

| target gene | viability hit class | caspase hit class | viability robust z-score | caspase robust z-score |
| --- | --- | --- | --- | --- |
| BLID (GeneID 414899) | no change | no change | -0.93 | 0.44 |
| PRAMEF6 (GeneID 440561) | no change | no change | -0.32 | 0.3 |
| USHBP1 (GeneID 83878) | no change | no change | 0.15 | 0.62 |
| CCNG2 (GeneID 901) | no change | no change | 0.08 | -0.44 |
| PRSS45P (GeneID 377047) | no change | no change | 0.26 | -0.61 |
| PSMD13 (GeneID 5719) | no change (active) | CA1 (caspase activation) | -2.14 | 5.92 |
| TMEM141 (GeneID 85014) | no change | no change | -1.17 | 0.18 |
| CTAG1B (GeneID 1485) | no change | no change | -1.08 | 0.16 |
| DUSP26 (GeneID 78986) | no change | no change | 0.16 | 0.38 |
| TGFA (GeneID 7039) | no change | no change | -0.31 | -0.38 |
| CARD6 (GeneID 84674) | no change | no change | 1.94 | -0.22 |
| TUBB3 (GeneID 10381) | no change | no change | -0.22 | 0.32 |
| EZHIP (GeneID 340602) | no change | no change | 0.61 | 0 |
| HSPA6 (GeneID 3310) | no change (active) | CA1 (caspase activation) | -1.49 | 6.02 |
| S1PR1 (GeneID 1901) | no change | no change | 0.09 | 0.27 |
| NFIB (GeneID 4781) | no change | no change | 0.78 | -0.78 |
| PER2 (GeneID 8864) | no change | no change | 1.94 | -0.16 |
| UPB1 (GeneID 51733) | no change | no change | 0.64 | 0.52 |
| CHRNB3 (GeneID 1142) | no change | no change | 0.82 | -0.16 |
| PDE9A (GeneID 5152) | no change | no change | 0.44 | 0.26 |
| FAM163B (GeneID 642968) | no change | no change | -0.95 | 2.66 |
| INO80D (GeneID 54891) | no change | no change | -0.71 | 0.34 |
| TPM4 (GeneID 7171) | no change | no change | 0.54 | 0.52 |
| SECTM1 (GeneID 6398) | no change | no change | -0.04 | 1.4 |
| GRIN2B (GeneID 2904) | no change | no change | -0.29 | 0.46 |
| TMEM144 (GeneID 55314) | no change | no change | 0.56 | -0.36 |
| OTOS (GeneID 150677) | no change (active) | CA1 (caspase activation) | 0.85 | 5.13 |
| OVOS2P (GeneID 144203) | no change | no change | 0.93 | -0.64 |
| OR9A2 (GeneID 135924) | no change | no change | -0.05 | -0.28 |
| MIR9-1HG (GeneID 10485) | no change | no change | -0.74 | 0.22 |
| SHC4 (GeneID 399694) | no change | no change | -1.25 | 0.24 |
| POU1F1 (GeneID 5449) | no change | no change | 0.36 | 0.75 |
| TRAPPC11 (GeneID 60684) | no change | no change | -0.57 | 1.24 |
| KLRD1 (GeneID 3824) | no change | no change | -1.98 | 0.12 |
| UBE2A (GeneID 7319) | no change | no change | 0.21 | -0.34 |
| NAP1L2 (GeneID 4674) | no change | no change | 0.14 | -0.36 |
| MYBPC2 (GeneID 4606) | no change | no change | -0.93 | 0.56 |
| OR6N2 (GeneID 81442) | no change | no change | 0.26 | 0.45 |
| FZD7 (GeneID 8324) | no change | no change | 0.08 | 0.4 |
| KCNA5 (GeneID 3741) | no change | no change | -1.09 | -0.01 |
| TMTC2 (GeneID 160335) | no change | no change | -1.05 | -0.88 |
| CTNNBL1 (GeneID 56259) | no change | no change | 0.6 | 1.38 |
| PITPNA (GeneID 5306) | no change | no change | -0.14 | -0.62 |
| RILPL2 (GeneID 196383) | no change | no change | -0.28 | 0.52 |
| C19orf44 (GeneID 84167) | no change | no change | -0.26 | 1.99 |
| SMG1 (GeneID 23049) | RV1 (reduced viability) (active) | no change | -4.54 | 4.79 |
| PNPLA2 (GeneID 57104) | no change | no change | 1.88 | -0.08 |
| LRRC17 (GeneID 10234) | no change | no change | 1.25 | 0.58 |
| ZC3H12B (GeneID 340554) | no change | no change | 0.98 | -0.84 |
| SLC18A2 (GeneID 6571) | no change | no change | 0.1 | -0.9 |
| CALML5 (GeneID 51806) | no change | no change | -0.1 | 0.04 |
| S100A4 (GeneID 6275) | no change | no change | -1.36 | -0.17 |
| P4HTM (GeneID 54681) | no change | no change | -0.49 | 0.64 |
| ALOX5 (GeneID 240) | no change | no change | 0.18 | -0.55 |
| ZNF696 (GeneID 79943) | no change | no change | -1 | 0.75 |
| OR7A10 (GeneID 390892) | no change | no change | 0.46 | -0.8 |
| TUBA3E (GeneID 112714) | no change | no change | -2.06 | 1.3 |
| PKD1L1-AS1 (GeneID 80099) | no change | no change | -1.8 | 3.08 |
| AIMP2 (GeneID 7965) | no change | no change | -0.2 | 1.04 |
| MAP2K6 (GeneID 5608) | no change | no change | 0.98 | -0.38 |
| ASPH (GeneID 444) | no change | no change | 0.3 | 0.01 |
| CYTH2 (GeneID 9266) | no change | no change | 0.36 | -0.48 |
| UBASH3B (GeneID 84959) | no change | no change | 0.19 | -0.68 |
| NLRP13 (GeneID 126204) | no change | no change | 0.66 | -0.74 |
| CBR3 (GeneID 874) | no change | no change | 0.52 | -0.86 |
| DISP1 (GeneID 84976) | no change | no change | -0.33 | -1 |
| ALDH5A1 (GeneID 7915) | no change | no change | -0.02 | -0.43 |
| RSBN1 (GeneID 54665) | no change | no change | 0.76 | 4.43 |
| MAGED2 (GeneID 10916) | no change | no change | 1.25 | -0.1 |
| CRYBA2 (GeneID 1412) | no change | no change | 0.36 | -0.32 |
| CILP (GeneID 8483) | no change | no change | -0.1 | 4.52 |
| ECD (GeneID 11319) | no change | no change | 0.62 | -0.04 |
| CSN2 (GeneID 1447) | no change | no change | -0.26 | -0.34 |

A few values from the list:
ECD (GeneID 11319), caspase hit class → no change
Under “viability robust z-score”, OR7A10 (GeneID 390892) is entered as 0.46
CILP (GeneID 8483), viability hit class: no change
Result for CRYBA2 (GeneID 1412) under “viability robust z-score”: 0.36
